Laboratory results published in patent publication US6001801A (Biomeasure, Inc., priority 1998, dated 1999).

Experiment: Boc solid-phase peptide synthesis; Benzylhydrylamine-polystyrene resin; diisopropylcarbodiimide
Details: whole synthesis

Substance “H2 -c[Cys-Asn-Phe-Phe-D-Trp-Lys-Thr-Phe-Cys]-NH2” has an isolated mass (scale 0.25 mmole) of 21 mg.

“H2 -c[Cys-Phe-Phe-D-Trp-Lys-Thr-Phe-Cys] -NH2 (WKTFC; Cys-Phe-Phe-D- N-terminal; cyclic; C-terminal amide; printed: Trp-Lys-Thr-Phe-Cys)” gave an isolated mass (scale 0.5 mmole) of 95 mg.
